Earlier results on one compound are cited in patent US20080153785A1, “Pharmaceutical Compositions Containing Biophosphonate for Improving Oral Absorption” (CHONG KUN DANG PHARMACEUTICAL CORP., priority 2005, published 2008).

The conditions of the data set: small intestines pH 6 to 8; literature report.

In the case of `NCCCC(O)(P(=O)(O)O)P(=O)(O)O` [alendronate sodium], the absorption rate entry is listed as “less than 1%”.
